Laboratory results reported in PMC8166485.
Results are given in words; binding and its absence hold for the method and conditions named. Binding seen in cells or lysates may run through a third protein. Some entries that bind do so weakly or less than the wild type. Sequences can lack the tags named with a protein.

Target: T1, Flag-tagged Trim35 (tripartite motif 35) (human (cDNA of human embryonic kidney 293FT cells)) (UniProt Q9UPQ4)
T1 sequence: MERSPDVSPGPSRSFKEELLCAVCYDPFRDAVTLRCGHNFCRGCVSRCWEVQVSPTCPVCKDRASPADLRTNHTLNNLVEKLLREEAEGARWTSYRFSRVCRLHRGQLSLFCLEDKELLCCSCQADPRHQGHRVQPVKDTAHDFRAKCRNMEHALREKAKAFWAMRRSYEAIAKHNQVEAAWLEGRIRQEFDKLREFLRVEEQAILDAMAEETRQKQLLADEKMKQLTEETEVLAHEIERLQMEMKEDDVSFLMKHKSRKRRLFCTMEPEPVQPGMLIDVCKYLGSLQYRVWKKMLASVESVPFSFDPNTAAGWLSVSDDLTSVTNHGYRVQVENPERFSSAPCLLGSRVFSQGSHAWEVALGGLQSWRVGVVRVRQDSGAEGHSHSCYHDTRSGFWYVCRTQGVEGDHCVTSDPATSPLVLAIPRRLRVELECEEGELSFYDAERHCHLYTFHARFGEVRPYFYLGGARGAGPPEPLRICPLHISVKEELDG
Experiment: co-IP; 293FT cells transfected with Flag-tagged Trim35 or an empty vector; 48 h after transfection cell lysates subjected to IP with anti-Flag beads and immunoblotting

binding: binds
B1: CLOCK (protein, UniProt O15516 1-846)
chain: MLFTVSCSKMSSIVDRDDSSIFDGLVEEDDKDKAKRVSRNKSEKKRRDQFNVLIKELGSMLPGNARKMDKSTVLQKSIDFLRKHKEITAQSDASEIRQDWKPTFLSNEEFTQLMLEALDGFFLAIMTDGSIIYVSESVTSLLEHLPSDLVDQSIFNFIPEGEHSEVYKILSTHLLESDSLTPEYLKSKNQLEFCCHMLRGTIDPKEPSTYEYVKFIGNFKSLNSVSSSAHNGFEGTIQRTHRPSYEDRVCFVATVRLATPQFIKEMCTVEEPNEEFTSRHSLEWKFLFLDHRAPPIIGYLPFEVLGTSGYDYYHVDDLENLAKCHEHLMQYGKGKSCYYRFLTKGQQWIWLQTHYYITYHQWNSRPEFIVCTHTVVSYAEVRAERRRELGIEESLPETAADKSQDSGSDNRINTVSLKEALERFDHSPTPSASSRSSRKSSHTAVSDPSSTPTKIPTDTSTPPRQHLPAHEKMVQRRSSFSSQSINSQSVGSSLTQPVMSQATNLPIPQGMSQFQFSAQLGAMQHLKDQLEQRTRMIEANIHRQQEELRKIQEQLQMVHGQGLQMFLQQSNPGLNFGSVQLSSGNSSNIQQLAPINMQGQVVPTNQIQSGMNTGHIGTTQHMIQQQTLQSTSTQSQQNVLSGHSQQTSLPSQTQSTLTAPLYNTMVISQPAAGSMVQIPSSMPQNSTQSAAVTTFTQDRQIRFSQGQQLVTKLVTAPVACGAVMVPSTMLMGQVVTAYPTFATQQQQSQTLSVTQQQQQQSSQEQQLTSVQQPSQAQLTQPPQQFLQTSRLLHGNPSTQLILSAAFPLQQSTFPQSHHQQHQSQQQQQLSRHRTDSLPDPSKVQPQ
